Construct, isoform or probe ends are uncertain for at least one entry. Negatives hold for the conditions tested. At least one verdict was read from the data and is not stated in words by the source.
Tested on: MucR1 (Sinorhizobium fredii CCBAU45436 (SF45436))
Test: EMSA
Details: 4.5 and 13.5 uM protein; 25 mM Tris-HCl pH 8.0, 5% glycerol, 0.05% n-dodecyl-beta-D-maltoside, 0.5 mg/ml BSA, 0.1 mg/ml sonicated salmon sperm DNA, 12.3 nM Cy5-DNA; 20 C, 30 min; recombinant protein; label: 5'-Cy5 on sense strand

Sequence: GCTGCGTTCCGAGCCGGTGCGCGCTCCGGCCGGGAGCGCATCGCA (double strand) [c04750 promoter (Cy5-c04750IR), 45 bp]
- binding result: no binding

— publication PMC8546604
